# According to patent US20070105790A1, “Pancreatic cancer treatment using Na+/K+ ATPase inhibitors” (Bionaut Pharmaceuticals, Inc., priority 2004, published 2007):
# Some results were stated once for a whole list of compounds, not compound by compound.
# Test system: pancreatic cancer cells
# Test: Proliferation of pancreatic cancer cells, combination with Gemcitabin
# Format: cell-based
# Details: with sub-optimal level of Gemcitabin
compound,measurement,value
"C[C@@H]1O[C@@H](O[C@H]2C[C@@H](O)[C@]3(CO)[C@H]4[C@H](O)C[C@]5(C)[C@@H](C6=CC(=O)OC6)CC[C@]5(O)[C@@H]4CC[C@]3(O)C2)[C@H](O)[C@H](O)[C@H]1O [BNC-1, ouabain]",decrease of concentration effective for inhibiting proliferation,at least 2 fold
